# Results deposited as PubChem BioAssay AID652243 (Drosophila RNAi Screening Center, 2013)
# Purpose: 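Fly genes required for human androgen receptor driven transcription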 (primary screen)
# Cells: Drosophila S2R+ cells
# Reagents: long dsRNA against Drosophila genes
# Timing: 72 h (48 h, then 24 h hormone)
# Conditions: synthetic androgen R1881 at 10 nM for 24 h
# Measured: 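Per-well raw luminescence of the androgen-driven firefly reporter and of the Renilla control, two replicates each, without normalisation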
# Scale: firefly reporter light: higher = more light from androgen-responsive reporter; Renilla control light: higher = more constitutive control signal (cell number, transfection)
# Rule for the call: 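Hit when the log firefly-to-Renilla ratio dropped or increased by a fixed fold versus the mean of GFP or LacZ controls across duplicate plates; lowering cut given as 1.5 and as 3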
# Calls: active = hit: reporter lowered or raised; inactive = no hit
# The screen tested about 24,000 reagents; this is an unselected part of those with a known target gene and a result. Of all reagents, 246 (1%) got an active call. 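Plates not normalised; calls are printed but the firefly/Renilla ratio behind them is not deposited; fold cut for lowering reported inconsistently.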 Raw values vary from plate to plate and are shown uncorrected. Entries without a mark were called inactive. Reagents against one gene are numbered here. The record does not give: the amount of reagent.
Gene,reagent,"firefly reporter light, replicate 1","firefly reporter light, replicate 2","Renilla control light, replicate 1","Renilla control light, replicate 2"
CG31008,1,1.04e6,6.18e5,9.39e5,4.60e5
CG31008,2,2.25e5,3.02e5,6.73e5,8.93e5
Cdc7 (Cdc7 kinase),1,1.45e5 (active),1.97e5,2.28e6,2.80e6
Cdc7 (Cdc7 kinase),2,2.14e5,1.69e5,4.70e5,5.83e5
MED14 (Mediator complex subunit 14),1,3.14e5,1.80e5,9.03e5,4.90e5
MED14 (Mediator complex subunit 14),2,1.27e5,1.94e5,4.90e5,3.74e5
tsh (teashirt),1,3.76e5,4.11e5,2.10e6,2.02e6
CG1724,1,1.55e5,2.52e5,6.74e5,6.65e5
CG1724,2,8.70e5,1.06e6,5.94e5,6.93e5
CG3184,1,57863,62881,7.89e5,3.77e5
mon2 (monensin sensitivity 2),1,1.41e5,2.54e5,1.32e6,1.83e6
CG33310,1,1.05e5,84525,1.20e6,1.19e6
CG33310,2,8.75e5,1.31e6,1.23e6,1.16e6
TTLL6B (Tubulin tyrosine ligase-like 6B),1,2.41e5,1.80e5,2.14e6,1.99e6
TTLL6B (Tubulin tyrosine ligase-like 6B),2,3.79e5,2.61e5,3.88e5,2.35e5
CG18011,1,7.09e5,5.97e5,1.05e6,1.13e6
CG18011,2,3.11e5,2.49e5,1.75e6,1.97e6
kn (knot),1,55099,66959,1.23e6,1.23e6
kn (knot),2,64206,97192,1.49e6,1.49e6
kn (knot),3,6.58e5,6.83e5,3.09e6,2.30e6
kn (knot),4,8.97e5,8.36e5,8.04e5,1.14e6
CG34051,1,5.58e5,5.54e5,2.92e6,2.49e6
CG10657,1,2.95e5,3.16e5,1.79e6,1.42e6
CG10657,2,4.40e5,3.60e5,6.52e5,4.63e5
SoxN (SoxNeuro),1,2.08e5 (active),1.78e5,2.43e6,2.31e6
SoxN (SoxNeuro),2,3.98e5,3.67e5,7.72e5,5.65e5
Mgtor (Megator),1,3.59e5,1.11e6,9.06e5,2.13e6
NimB4 (Nimrod B4),1,7.88e5,1.14e6,1.47e6,1.72e6
NimB4 (Nimrod B4),2,5.98e5,7.36e5,1.04e6,1.33e6
CG33635,1,5.50e5,7.72e5,1.72e6,1.82e6
CG11454,1,8.17e5,8.04e5,3.79e6,1.56e6
CG11454,2,7.94e5,6.95e5,1.02e6,8.17e5
CG15332,1,2.22e5,2.02e5,1.72e6,2.05e6
CG15332,2,8.38e5,8.66e5,8.37e5,8.59e5
Pcyt1 (Phosphocholine cytidylyltransferase 1),1,8.57e5,1.12e6,1.11e6,1.44e6
Pcyt1 (Phosphocholine cytidylyltransferase 1),2,5.56e5,2.80e5,1.82e6,9.43e5
Arp53D (Actin-related protein 53D),1,48129,86082,1.28e6,1.28e6
RunxB (Runt related B),1,5.16e5,3.63e5,2.17e5,1.35e5
RunxB (Runt related B),2,19208,15790,94874,55300
RunxB (Runt related B),3,12893,6247,69714,35943
RunxB (Runt related B),4,7.83e5,8.95e5,7.64e5,8.91e5
RunxB (Runt related B),5,4.03e5,6.20e5,1.39e6,1.65e6

A run of entries from the list above:
Gene,reagent,"firefly reporter light, replicate 1","firefly reporter light, replicate 2","Renilla control light, replicate 1","Renilla control light, replicate 2"
mon2 (monensin sensitivity 2),1,1.41e5,2.54e5,1.32e6,1.83e6
CG33310,1,1.05e5,84525,1.20e6,1.19e6
CG33310,2,8.75e5,1.31e6,1.23e6,1.16e6
TTLL6B (Tubulin tyrosine ligase-like 6B),1,2.41e5,1.80e5,2.14e6,1.99e6
